These are yes or no findings as the source states them, for the method shown. For part of these data: Binding seen in cells or lysates may run through a third protein. Some results given as binding are weak or reduced against the parent protein; the word gives no strength.

The chains behind the UniProt entries cited, without tags or fusion partners. Residues count along the entry.
UniProt P21860, residues 20-643: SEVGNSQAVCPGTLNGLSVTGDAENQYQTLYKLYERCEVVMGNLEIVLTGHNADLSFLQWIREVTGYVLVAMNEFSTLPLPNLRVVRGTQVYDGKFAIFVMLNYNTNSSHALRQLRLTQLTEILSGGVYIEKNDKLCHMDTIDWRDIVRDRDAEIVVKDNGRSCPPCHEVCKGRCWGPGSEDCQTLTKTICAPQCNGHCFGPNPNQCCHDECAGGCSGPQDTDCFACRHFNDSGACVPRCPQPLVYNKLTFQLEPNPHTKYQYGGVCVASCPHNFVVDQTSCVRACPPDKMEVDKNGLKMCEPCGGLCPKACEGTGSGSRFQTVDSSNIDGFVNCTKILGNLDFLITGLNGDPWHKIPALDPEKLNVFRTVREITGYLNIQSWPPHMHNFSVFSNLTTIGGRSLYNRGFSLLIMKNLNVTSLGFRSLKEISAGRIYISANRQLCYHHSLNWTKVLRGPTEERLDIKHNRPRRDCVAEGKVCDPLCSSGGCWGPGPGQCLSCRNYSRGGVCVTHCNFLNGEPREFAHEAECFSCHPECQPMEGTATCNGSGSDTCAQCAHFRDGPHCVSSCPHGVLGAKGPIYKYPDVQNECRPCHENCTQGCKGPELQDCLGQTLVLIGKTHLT

The target in assay [1] is T1, Recombinant human PlexinD1 protein (human) (UniProt Q9Y4D7).
T1 sequence: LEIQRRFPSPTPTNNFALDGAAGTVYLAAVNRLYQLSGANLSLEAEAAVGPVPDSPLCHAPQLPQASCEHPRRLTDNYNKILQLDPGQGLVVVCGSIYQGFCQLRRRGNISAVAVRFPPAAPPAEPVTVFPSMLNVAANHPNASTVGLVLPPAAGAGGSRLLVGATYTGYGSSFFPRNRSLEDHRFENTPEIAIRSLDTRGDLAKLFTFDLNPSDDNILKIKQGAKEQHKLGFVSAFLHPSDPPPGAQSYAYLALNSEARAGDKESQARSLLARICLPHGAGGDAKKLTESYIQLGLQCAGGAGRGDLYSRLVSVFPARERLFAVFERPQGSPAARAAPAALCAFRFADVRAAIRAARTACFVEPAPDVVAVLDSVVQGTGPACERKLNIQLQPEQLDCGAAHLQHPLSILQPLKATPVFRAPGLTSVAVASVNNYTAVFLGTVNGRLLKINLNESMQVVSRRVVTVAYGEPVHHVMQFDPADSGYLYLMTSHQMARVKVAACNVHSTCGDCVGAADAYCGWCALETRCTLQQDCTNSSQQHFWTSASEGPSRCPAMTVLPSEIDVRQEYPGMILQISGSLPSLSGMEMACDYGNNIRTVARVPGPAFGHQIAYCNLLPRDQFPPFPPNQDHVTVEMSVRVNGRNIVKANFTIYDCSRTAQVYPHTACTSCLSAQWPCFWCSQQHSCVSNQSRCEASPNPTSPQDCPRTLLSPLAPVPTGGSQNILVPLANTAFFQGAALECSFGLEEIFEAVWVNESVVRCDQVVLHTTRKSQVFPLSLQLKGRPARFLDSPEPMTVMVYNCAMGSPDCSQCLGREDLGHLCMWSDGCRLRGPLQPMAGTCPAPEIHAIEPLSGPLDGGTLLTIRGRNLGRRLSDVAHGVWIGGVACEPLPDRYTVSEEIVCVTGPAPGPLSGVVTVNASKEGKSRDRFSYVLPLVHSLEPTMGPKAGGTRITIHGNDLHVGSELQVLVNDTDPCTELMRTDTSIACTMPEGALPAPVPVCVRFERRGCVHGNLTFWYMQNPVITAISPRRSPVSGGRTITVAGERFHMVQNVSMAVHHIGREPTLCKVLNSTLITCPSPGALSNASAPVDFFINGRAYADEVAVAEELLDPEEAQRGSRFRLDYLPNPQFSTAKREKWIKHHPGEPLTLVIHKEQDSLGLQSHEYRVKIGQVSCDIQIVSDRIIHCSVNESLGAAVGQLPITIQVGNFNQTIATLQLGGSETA
Put plainly: co-IP; 10 ug each of recombinant PlexinD1 and ErbB3 in 300 ul IP lysis/wash buffer, 4 C, 4 h; PlexinD1 antibody on Protein G magnetic beads; blots for PlexinD1 and ErbB3; both purified.

The target of assay [2] is T2, PlexinD1 (human (endogenous in LNCaP, C4-2B^ENZR, 22Rv1)), Q9Y4D7.
T2 chain: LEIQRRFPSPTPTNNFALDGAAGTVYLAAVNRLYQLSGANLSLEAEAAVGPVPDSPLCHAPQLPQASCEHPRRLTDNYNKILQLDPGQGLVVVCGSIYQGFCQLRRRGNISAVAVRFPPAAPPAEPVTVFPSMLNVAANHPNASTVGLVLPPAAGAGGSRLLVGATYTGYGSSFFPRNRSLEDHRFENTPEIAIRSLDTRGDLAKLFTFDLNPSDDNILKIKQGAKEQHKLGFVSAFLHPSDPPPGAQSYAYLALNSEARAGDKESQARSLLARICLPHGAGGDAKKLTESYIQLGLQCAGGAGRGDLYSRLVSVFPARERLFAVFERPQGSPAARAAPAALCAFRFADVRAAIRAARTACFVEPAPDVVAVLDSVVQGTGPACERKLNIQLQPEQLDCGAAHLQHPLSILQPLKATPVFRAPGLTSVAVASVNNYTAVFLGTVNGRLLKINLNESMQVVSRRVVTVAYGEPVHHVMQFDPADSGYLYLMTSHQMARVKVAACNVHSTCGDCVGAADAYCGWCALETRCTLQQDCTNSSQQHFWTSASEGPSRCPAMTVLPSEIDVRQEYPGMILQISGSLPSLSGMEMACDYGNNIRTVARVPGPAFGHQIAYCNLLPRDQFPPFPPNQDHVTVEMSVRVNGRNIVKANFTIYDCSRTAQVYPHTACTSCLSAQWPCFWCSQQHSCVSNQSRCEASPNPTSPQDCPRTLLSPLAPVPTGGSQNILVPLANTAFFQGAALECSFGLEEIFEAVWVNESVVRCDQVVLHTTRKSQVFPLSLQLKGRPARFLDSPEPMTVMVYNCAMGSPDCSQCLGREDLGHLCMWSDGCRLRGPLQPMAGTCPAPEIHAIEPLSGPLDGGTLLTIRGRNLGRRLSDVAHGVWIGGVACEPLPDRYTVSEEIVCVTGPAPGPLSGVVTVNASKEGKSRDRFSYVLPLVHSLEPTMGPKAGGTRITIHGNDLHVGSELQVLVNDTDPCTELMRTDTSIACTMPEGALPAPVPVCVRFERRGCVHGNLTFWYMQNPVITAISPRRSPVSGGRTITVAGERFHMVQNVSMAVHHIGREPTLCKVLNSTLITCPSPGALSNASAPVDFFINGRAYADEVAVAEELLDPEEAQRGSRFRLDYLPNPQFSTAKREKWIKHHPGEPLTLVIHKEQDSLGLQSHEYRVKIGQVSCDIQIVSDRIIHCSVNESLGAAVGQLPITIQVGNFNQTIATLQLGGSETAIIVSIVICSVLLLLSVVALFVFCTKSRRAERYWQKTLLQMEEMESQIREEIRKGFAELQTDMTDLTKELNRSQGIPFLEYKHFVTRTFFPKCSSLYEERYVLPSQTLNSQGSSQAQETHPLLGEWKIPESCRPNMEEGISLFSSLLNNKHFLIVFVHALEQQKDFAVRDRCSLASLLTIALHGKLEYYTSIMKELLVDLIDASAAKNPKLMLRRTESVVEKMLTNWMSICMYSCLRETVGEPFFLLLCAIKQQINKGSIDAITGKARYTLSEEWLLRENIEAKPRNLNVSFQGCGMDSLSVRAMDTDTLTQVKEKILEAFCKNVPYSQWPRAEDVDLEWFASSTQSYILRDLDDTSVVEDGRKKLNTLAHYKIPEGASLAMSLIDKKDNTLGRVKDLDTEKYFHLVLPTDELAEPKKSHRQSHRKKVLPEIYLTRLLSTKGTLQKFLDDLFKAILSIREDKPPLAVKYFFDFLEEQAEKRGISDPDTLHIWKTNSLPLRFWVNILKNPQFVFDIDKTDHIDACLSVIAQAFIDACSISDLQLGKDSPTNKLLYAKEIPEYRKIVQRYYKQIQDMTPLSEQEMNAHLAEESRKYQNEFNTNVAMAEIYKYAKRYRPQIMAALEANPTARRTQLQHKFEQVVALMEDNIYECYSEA
As to the kind of experiment: proximity ligation; endogenous proteins in fixed cells (LNCaP and C4-2B^ENZR); pairs of primary antibodies, Duolink In Situ Red kit; cytoplasmic fluorescence per cell; for PlexinD1-ErbB3/cMet C4-2B^ENZR cells also treated with recombinant Sema3E/Sema3C (200-500 ng/ml, 4 h) or SEMA3E/SEMA3C siRNA (10 uM, 48 h). The conditions noted are these: remark: other sources report otherwise.

Assay [3] deals with T2, PlexinD1 (human (endogenous in LNCaP, …)). As to the kind of experiment: proximity ligation; endogenous proteins in fixed 22Rv1 (and C4-2B^ENZR) cells treated with D1SP (1 uM, 2 h) or PBS as vehicle; Duolink In Situ Red kit; cytoplasmic fluorescence per cell. Conditions: remark: other sources report otherwise.

On to “Recombinant human ErbB3 protein (from UniProt P21860 20-643) (receptor)”, for which the binding result in assay [1] is “binds”.

B1: Sema3C, Q99985 21-751 (ligand)
chain: GSSQPQARVYLTFDELRETKTSEYFSLSHHPLDYRILLMDEDQDRIYVGSKDHILSLNINNISQEALSVFWPASTIKVEECKMAGKDPTHGCGNFVRVIQTFNRTHLYVCGSGAFSPVCTYLNRGRRSEDQVFMIDSKCESGKGRCSFNPNVNTVSVMINEELFSGMYIDFMGTDAAIFRSLTKRNAVRTDQHNSKWLSEPMFVDAHVIPDGTDPNDAKVYFFFKEKLTDNNRSTKQIHSMIARICPNDTGGLRSLVNKWTTFLKARLVCSVTDEDGPETHFDELEDVFLLETDNPRTTLVYGIFTTSSSVFKGSAVCVYHLSDIQTVFNGPFAHKEGPNHQLISYQGRIPYPRPGTCPGGAFTPNMRTTKEFPDDVVTFIRNHPLMYNSIYPIHKRPLIVRIGTDYKYTKIAVDRVNAADGRYHVLFLGTDRGTVQKVVVLPTNNSVSGELILEELEVFKNHAPITTMKISSKKQQLYVSSNEGVSQVSLHRCHIYGTACADCCLARDPYCAWDGHSCSRFYPTGKRRSRRQDVRHGNPLTQCRGFNLKAYRNAAEIVQYGVKNNTTFLECAPKSPQASIKWLLQKDKDRRKEVKLNERIIATSQGLLIRSVQGSDQGLYHCIATENSFKQTIAKINFKVLDSEMVAVVTDKWSPWTWASSVRALPFHPKDIMGAFSHSEMQMINQYCKDTRQQHQQGDESQKMRGDYGKLKALINSRKSRNRRNQLPES
Regarding B1, the binding result in assay [2] and in assay [3] was “binds” in each case.

Values taken from publication PMC11822115.
